This is one part of the list. These are further read-outs of the screen, such as a control signal, another cell line or another target. No call is given for them. Compounds called inactive in the main read-out are mostly missing here. Words in brackets tell the shape of the fitted curve; partial curves, single points and poor fits give uncertain potencies.

This is an account of results in PubChem BioAssay AID2685 (National Center for Advancing Translational Sciences (NCATS), 2010).

A short description of the assay: qHTS Assay for Lipid Storage Modulators in Drosophila S3 Cells.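 As to cell number change: cells counted by Cell Tracker Red CMTPX staining in the red channel.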 The following applies: BODIPY lipid droplet fluorescence, 18-24 h; for cell number change: measured here: cell count max response, cells fed with added oleic acid. The gist of the method: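 Drosophila S3 cells loaded with oleic acid (400 uM, as added) and compounds at several concentrations; lipid droplets imaged by 488-nm laser-scanning cytometry, 500–530 nm intensity and object ratio to cell channel. Percent activity normalized to 20 uM Triacsin C.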
In general terms: Quantitative high-throughput screening tests each substance at several concentrations.

Setting [1] is: measured here: cell number channel AC50, cells fed with added oleic acid.
The mark [2] stands for this setting: measured here: lipid fluorescence (Fed channel) AC50, cells fed with added oleic acid.

For `Cc1cc(CNC(=O)CC2C(=O)NCCN2Cc2ccc(-c3ccccc3)cc2)nn1C` (centres undefined), the cell number change is 11.5%.

As to `C=CCNC(=O)COC(=O)c1ccc(Cl)c(S(N)(=O)=O)c1`, the cell number change was -18.1%.

On to `COc1ccc(N2CCN(c3ccc4nnc(CCC(=O)Nc5ccc(C)cc5)n4n3)CC2)cc1`, for which the cell number change worked out at 1.44%.

As a reminder, the AC50 is the concentration at which the activity in the assay is half-maximal. In the case of `CN(C)/C=C1\C(=O)ON=C1c1ccccc1`, the cell number change is -28.9%. Moreover, the half-maximal activity concentration (AC50) under setting [1] is 0.517 µM [rising, partial curve].

In the case of `CC(=O)Nc1ccc(S(=O)(=O)N(C)CC(=O)OCC(=O)N2CCCC2=O)cc1`, the cell number change is -15.2%.

With `CS(=O)(=O)Nc1nnc(C2CCCC2)s1`, the cell number change stood at 1.12%. Under setting [1], the AC50 is 0.231 µM [falling, full curve, poor fit].

For the molecule `O=C(O)c1ccc(S(=O)(=O)N[C@@H](Cc2ccc(O)cc2)C(=O)O)cc1`, the cell number change was 5.9%. Under setting [2], the AC50 is 16.4 µM [falling, single point].

For the molecule `COc1ccccc1NC(=O)CN(Cc1ccco1)C(=O)c1cc2ccccc2o1`, the cell number change was found to be 39.4%. Further, the AC50 under setting [1] is 20.6 µM [rising, single point].

Consider `O=C1c2ccccc2C(=O)N1CCOc1ccccc1Cl`, for which the cell number change is -0.54%. In addition, the AC50 under setting [2] was 0.58 µM [falling, single point].

As to `Cc1nc(NCCc2ccc(F)cc2)c(C#N)c(C)c1[N+](=O)[O-]`, the cell number change is -21.1%. Under setting [2], the AC50 was 9.2 µM [falling, single point].

Take `CCN(CC)C(=O)N1c2ccccc2Sc2ccccc21`: the cell number change is 5.84%. The AC50 under setting [2] was 29.1 µM [rising, single point].

Regarding `O=C1Nc2ccccc2CCC1Sc1nnc(-c2ccc(Cl)cc2)s1` (centres undefined), the cell number change is -9.9%. Under setting [2], the AC50 was 20.6 µM [falling, single point].

For the molecule `COc1cc(/C=C/C(=O)OCC(=O)NCc2ccco2)cc(OC)c1OC`, the cell number change is -7.94%. For the same molecule, under setting [1], the AC50 was 2.06 µM [falling, partial curve].

For the molecule `CCn1nccc1C(=O)Nc1nccs1`, the concentration at half-maximal activity (AC50) under setting [1] was 4.61 µM [falling, partial curve, poor fit].

As for `COc1ccc(NC(=O)C2CCC(CNc3c(N4CCCCC4)c(=O)c3=O)CC2)cc1OC` (centres undefined), the AC50 under setting [1] is 6.51 µM [rising, single point] and the AC50 under setting [2] was 4.11 µM [rising, partial curve, poor fit].

Regarding `COCCCN1C(=O)C(=O)/C(=C(/O)c2ccc(OCC(C)C)cc2C)C1c1cccnc1` (centres undefined), the cell number change was found to be 96.5%. Also, under setting [1], the AC50 was 29.1 µM [rising, single point].

On to `Cc1c(C)c2ccc(OC(C)C(=O)NCCc3c[nH]c4ccccc34)cc2oc1=O` (centres undefined), for which the cell number change was -5.54%. For the same molecule, the AC50 under setting [2] was 23.1 µM [falling, partial curve, poor fit].

For `Cc1ccccc1OCc1nnc(SCC(=O)NC2CCCCC2)o1`, the cell number change was determined as 44.4%. The half-maximal activity concentration (AC50) under setting [1] is 5.17 µM [rising, partial curve, poor fit]. Also, under setting [2], the half-maximal activity concentration (AC50) was 6.51 µM [rising, partial curve].

For the molecule `COc1ccc(S(=O)(=O)N2CCCCCC2)cc1C(=O)OCC(=O)NCC(C)C`, the cell number change is 60.3%. Under setting [1], the AC50 is 1.84 µM [rising, full curve].

In the case of `Cn1c(SCC(=O)N2CCN(c3cccc(Cl)c3)CC2)nnc1-c1ccncc1`, the cell number change was -15.7%. The AC50 under setting [2] is 29.1 µM [falling, single point].

Regarding `CN(C(=O)C12CC3CC(CC(C3)C1)C2)C1CCS(=O)(=O)C1` (centres undefined), the cell number change was 1.55%.

As for `O=c1c2cccnc2nc2n1CCCCC2`, the cell number change was -4.62%. Further, the AC50 under setting [1] was 0.82 µM [falling, single point]. In addition, the AC50 under setting [2] was 2.31 µM [falling, single point].

On to `COc1ccccc1N(C(=O)c1snc(C(N)=O)c1N)C(C(=O)NC1CCCC1)c1ccco1` (centres undefined), for which the cell number change turned out to be 4.61%. The AC50 under setting [2] was 16.4 µM [rising, single point].

Regarding `O=C(CSc1ncnc2c1cnn2-c1ccccc1)NCC1CCCO1` (centres undefined), the concentration at half-maximal activity (AC50) under setting [2] was 4.11 µM [falling, single point].

For the molecule `Cc1cc(C(=O)CSc2nnc(-c3ccc(F)cc3)o2)c(C)n1CC1COc2ccccc2O1` (centres undefined), the cell number change is -7.9%.

Consider `COc1ccc(CC(=O)NCCS(=O)(=O)N2CCN(c3ccc(F)cc3)CC2)cc1OC`, for which the cell number change was -18.9%.

Turning to `N=c1c(S(=O)(=O)c2ccc(Cl)cc2)cc2c(=O)n3ccccc3nc2n1C1CCCCC1`, the cell number change is 16.8%.

Consider `O=C(CNC(=O)c1ccccc1)Nc1ccsc1C(=O)O`, for which the cell number change was -23.6%. Further, the AC50 under setting [2] was 16.4 µM [falling, partial curve, poor fit].

Turning to `O=C(Nc1ccccc1)c1ccc(S(=O)(=O)NCc2cccnc2)cc1`, the cell number change came out at 4.96%. Besides, the AC50 under setting [1] is 6.51 µM [rising, single point]. For the same molecule, the concentration at half-maximal activity (AC50) under setting [2] was 1.3 µM [rising, full curve].

Consider `COC(=O)c1ccc(NC(=O)c2ccccc2NS(=O)(=O)c2ccccc2)cc1`, for which the cell number change was determined as 104%. Further, the concentration at half-maximal activity (AC50) under setting [1] is 29.1 µM [rising, single point].

Consider `CC1CCN(C(=O)CCNS(=O)(=O)c2ccc(Cl)cc2)CC1`, for which the cell number change was found to be 15.5%. Also, the half-maximal activity concentration (AC50) under setting [1] is 6.51 µM [rising, single point].

With `COc1ccc(/C=N/NC(=O)c2ccc(NC(=O)c3cccc([N+](=O)[O-])c3)cc2)c(C(=O)O)c1OC`, the cell number change is -10.3%. Besides, the AC50 under setting [2] is 2.91 µM [rising, full curve].

Regarding `CCN=C1S/C(=C\c2ccc(N3CCOCC3)cc2C)C(=O)N1CC`, the cell number change was -34.4%. Further, under setting [1], the AC50 was 32.6 µM [falling, single point]. Under setting [2], the half-maximal activity concentration (AC50) was 0.82 µM [rising, full curve, poor fit].

Take `Nc1ccc(OCC(O)C[n+]2ccc(CCS(=O)(=O)[O-])cc2)cc1` (centres undefined): the cell number change is -27.1%.

Turning to `O=C(CSc1nnc(-c2ccccc2)c(-c2ccccc2)n1)Nc1ccc(Br)cn1`, the cell number change is -75.8%. Also, under setting [1], the concentration at half-maximal activity (AC50) is 11.6 µM [falling, partial curve]. The AC50 under setting [2] is 2.59 µM [falling, full curve].

For `Cc1nn(C)cc1/C=N/NC(=O)C(C)(C)Oc1ccc(Cl)cc1`, the cell number change came to 36.6%. Further, the AC50 under setting [1] was 10.3 µM [rising, partial curve, poor fit].

Consider `O=C(c1ccc([N+](=O)[O-])o1)N1CCN(Cc2ccccc2)CC1`, for which the AC50 under setting [2] was 20.6 µM [falling, partial curve].

For `CCNC(=S)NNC(=O)c1cc(-c2ccc(OC)cc2)nc2ccccc12`, the cell number change is -3.9%.

`CC1(C)CC(=O)C2=C(C1)Nc1ccccc1NC2c1ccc(F)cc1` (centres undefined): the cell number change was -22.3%.

With `COc1ccc(-n2c(C)cc(/C=C3\C(=N)N4N=C(CC(=O)N5CCOCC5)SC4=NC3=O)c2C)c(OC)c1`, the cell number change was -3.36%. The AC50 under setting [2] was 29.1 µM [falling, single point].

For `CCOc1ccc(NC(=O)N2CCCC2C(=O)NCc2ccco2)cc1` (centres undefined), the cell number change worked out at 10.5%. Moreover, the AC50 under setting [2] was 0.231 µM [rising, full curve, poor fit].

Take `CCOc1cccc(C(=O)Nc2cc(C)ccc2NC(=O)c2ccco2)c1`: the cell number change was determined as 5.52%. Under setting [2], the AC50 is 16.4 µM [rising, single point].

As for `CCC(=O)Nc1cc(=O)[nH]c2nc(-c3ccc(Cl)cc3)nn12`, under setting [2], the AC50 is 0.0461 µM [rising, full curve].

Turning to `O=C(N/N=C/C1CC2CCC1C2)C1CC1` (centres undefined), the cell number change was determined as 16.4%. Moreover, the AC50 under setting [2] was 8.2 µM [rising, partial curve, poor fit].

`Cc1ccc(C(=O)N/C(=C/c2cccs2)C(=O)NCCc2c[nH]c3ccccc23)cc1`: the cell number change was determined as 4.83%. The AC50 under setting [2] was 0.164 µM [rising, full curve, poor fit].

Turning to `CN(c1ccccc1)S(=O)(=O)c1cccc(NC(=O)CSc2ncc(C(F)(F)F)cc2Cl)c1`, the cell number change came out at 20.2%. In addition, the AC50 under setting [2] was 29.1 µM [falling, single point].

In the case of `COc1ccc(C2Nc3ccccc3C(=O)N2NS(C)(=O)=O)cc1OC` (centres undefined), the cell number change was -2.71%. Under setting [2], the AC50 is 0.103 µM [falling, full curve, poor fit].

Regarding `CCOC(=O)C1CCCN(C(=O)CN2C(=O)COc3ccc(C(C)(C)C)cc32)C1` (centres undefined), the cell number change was -12.5%.

With `CCOC(=O)c1ccc(NC(=O)Cn2ncc(Cl)c(Cl)c2=O)cc1`, the cell number change is -14.2%. Further, the concentration at half-maximal activity (AC50) under setting [2] is 20.6 µM [rising, single point].

In the case of `O=C(O)CC1S/C(=N/N=C/c2ccc(-c3ccc(Cl)cc3[N+](=O)[O-])o2)NC1=O` (centres undefined), the cell number change is -5.39%.

Turning to `CC(C)(C)Nc1nc(Cl)nc(NCc2ccccc2)n1`, the cell number change came out at 26.3%. Also, under setting [2], the AC50 is 6.51 µM [rising, single point].

Take `O=C1CCC/C(=N\NC(=O)c2ccc(CSc3cccc4cccnc34)cc2)C1`: the cell number change is -67.5%.

As for `Cc1ccc(-n2cnc3sc(C)c(C)c3c2=O)cc1`, the cell number change was -1.59%. For the same molecule, the AC50 under setting [1] was 0.731 µM [rising, single point]. The AC50 under setting [2] is 7.31 µM [rising, single point].

Consider `COc1ccc(C(=O)NCc2nnc(SCC(=O)NC3CCCCC3)n2C)cc1`, for which the cell number change was 34.2%. Also, the AC50 under setting [1] was 14.6 µM [rising, partial curve, poor fit]. For the same molecule, the AC50 under setting [2] was 29.1 µM [rising, partial curve, poor fit].

For the molecule `CCOc1ccc(C(C)NC(=O)Cc2ccccc2F)cc1OCC` (centres undefined), the cell number change came to 54.9%. Further, the AC50 under setting [2] was 6.51 µM [falling, single point].

Regarding `C/C(=N\Nc1nc(C)cc(-c2ccccc2)n1)c1ccc(O)cc1`, the cell number change is -7%. Moreover, under setting [2], the AC50 was 29.1 µM [falling, single point].

`Cc1ccc(NC(=O)CCN2CC(C)OC(C)C2)cc1` (centres undefined): the cell number change was 14.2%. Further, under setting [2], the AC50 is 6.51 µM [rising, single point].

With `COCc1cc(Sc2ccc(OC)cc2)nc(-c2ccccc2)n1`, the cell number change came to 89.5%. The AC50 under setting [1] is 20.6 µM [rising, single point]. Besides, the AC50 under setting [2] is 23.1 µM [rising, partial curve].

As to `CC(N)C12CC3CC(CC(O)(C3)C1)C2` (centres undefined), the cell number change is -65.3%. Besides, under setting [1], the half-maximal activity concentration (AC50) is 7.31 µM [falling, partial curve]. Moreover, the AC50 under setting [2] is 5.17 µM [falling, single point].

As for `CCOc1ccc(NC(=O)CSc2nc3cccnc3n2CCOC)cc1`, the AC50 under setting [2] is 2.91 µM [rising, single point].

On to `Cc1coc2c1c(C)cc1oc(=O)c(CC(=O)NCCCN3CCCC3=O)c(C)c12`, for which the cell number change is -24.8%. For the same molecule, the AC50 under setting [2] was 7.31 µM [falling, partial curve, poor fit].

As for `CSc1ccc(/C=C/C(=O)c2ccc(NC(=O)Cc3ccccc3)cc2)cc1`, the cell number change worked out at 10.5%. Also, the AC50 under setting [2] is 29.1 µM [falling, single point].
